Measured values as given in patent publication US20130295106A1.
Residue numbers refer to the chain shown, from its start. These are yes or no findings as the source states them, for the method shown. Some entries that bind do so weakly or less than the wild type. Tags and fused reporters may be left off the sequences shown.

T1: FZD8-Fc variant Mut2 (substitution at position 75 in the cleft) (human) (UniProt Q9H461)
T1 sequence: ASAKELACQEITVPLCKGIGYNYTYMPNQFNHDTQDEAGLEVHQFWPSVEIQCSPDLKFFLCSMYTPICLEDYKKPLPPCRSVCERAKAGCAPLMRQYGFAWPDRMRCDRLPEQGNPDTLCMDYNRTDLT

T2: soluble FZD8-Fc containing the Fri domain (amino acids 1-157 of FZD8 linked in-frame to human IgG1 Fc) (human) (UniProt Q9H461)
T2 sequence: T1 sequence with S48L

B1: clone 12 (peptide)
peptide: TNLADIAHWISG
B2: clone 22 (peptide)
peptide: CPLTYPLYC
B3: clone 3 (peptide)
peptide: CPLYFPLYC
B4: clone 24 (peptide)
peptide: CPLRWPLMC
B5: clone 25 (peptide)
peptide: CPLQYPLMC
B6: clone 15 (peptide)
peptide: CPLRFPLFC
B7: clone 26 (peptide)
peptide: CPLSFPLYC
B8: clone 20 (peptide)
peptide: CPVKFPLYC
B9: clone 8 (peptide)
peptide: CPLAWPLIC
B10: clone 4 (peptide)
peptide: CPLVWPLIC
B11: clone 18 (peptide)
peptide: CPVNYPLYC
B12: clone 6 (peptide)
peptide: FGNYLNDVRFLI
B13: clone 27 (peptide)
peptide: CPLNWPLMC
B14: clone 13 (peptide)
peptide: CPVKYPLVC
B15: clone 16 (peptide)
peptide: CPLAWPLIC
B16: clone 17 (peptide)
peptide: CPVAFPLYC
B17: clone 28 (peptide)
peptide: DVWWLGSTWLKR

Biological target: T1, FZD8-Fc variant Mut2 (substitution at position 75 in the cleft) (human)
Experiment: phage ELISA on FZD8-Fc Mut2

binding | Binder
binds | B1
binds | B2
binds | B3
binds | B4
binds | B5
binds | B6
binds | B7
binds | B8
binds | B9
binds | B10
binds | B11
binds | B12
binds | B13
binds | B14
binds | B15
binds | B16

Biological target: T2, soluble FZD8-Fc containing the Fri domain (amino acids 1-157 of FZD8 linked in-frame to human IgG1 Fc) (human)
Experiment: phage ELISA on FZD8-Fc

binding | Binder
binds | B1
binds | B2
binds | B3
binds | B4
binds | B5
binds | B6
binds | B7
binds | B8
binds | B9
binds | B10
binds | B11
binds | B12
binds | B13
binds | B14
binds | B15
binds | B17
binds | B16
